These are yes or no findings as the source states them, for the method shown. In cells and extracts the contact can be indirect. Some binding calls cover weakened binding; strength is not graded here.

This note sets out measurements from paper PMC12325586.

In the experiment the target is E2F4, endogenous (human (endogenous in PANC1, MIA PaCa-2, SW1990, PATU8988T)), Q16254. In words: co-IP; endogenous proteins, whole-cell lysates of PANC1-Tet-shOFD1 and MIA PaCa-2-Tet-shOFD1 cells, with or without OFD1 knockdown or palbociclib (0.5 μM for 48 h); protein G magnetic beads with antibody overnight, TAP lysis buffer washes. The conditions noted are these: remark: other sources report otherwise.

B1: RBL2, endogenous, Q08999 1-1139 (protein)
chain: MPSGGDQSPPPPPPPPAAAASDEEEEDDGEAEDAAPPAESPTPQIQQRFDELCSRLNMDEAARAEAWDSYRSMSESYTLEGNDLHWLACALYVACRKSVPTVSKGTVEGNYVSLTRILKCSEQSLIEFFNKMKKWEDMANLPPHFRERTERLERNFTVSAVIFKKYEPIFQDIFKYPQEEQPRQQRGRKQRRQPCTVSEIFHFCWVLFIYAKGNFPMISDDLVNSYHLLLCALDLVYGNALQCSNRKELVNPNFKGLSEDFHAKDSKPSSDPPCIIEKLCSLHDGLVLEAKGIKEHFWKPYIRKLYEKKLLKGKEENLTGFLEPGNFGESFKAINKAYEEYVLSVGNLDERIFLGEDAEEEIGTLSRCLNAGSGTETAERVQMKNILQQHFDKSKALRISTPLTGVRYIKENSPCVTPVSTATHSLSRLHTMLTGLRNAPSEKLEQILRTCSRDPTQAIANRLKEMFEIYSQHFQPDEDFSNCAKEIASKHFRFAEMLYYKVLESVIEQEQKRLGDMDLSGILEQDAFHRSLLACCLEVVTFSYKPPGNFPFITEIFDVPLYHFYKVIEVFIRAEDGLCREVVKHLNQIEEQILDHLAWKPESPLWEKIRDNENRVPTCEEVMPPQNLERADEICIAGSPLTPRRVTEVRADTGGLGRSITSPTTLYDRYSSPPASTTRRRLFVENDSPSDGGTPGRMPPQPLVNAVPVQNVSGETVSVTPVPGQTLVTMATATVTANNGQTVTIPVQGIANENGGITFFPVQVNVGGQAQAVTGSIQPLSAQALAGSLSSQQVTGTTLQVPGQVAIQQISPGGQQQKQGQSVTSSSNRPRKTSSLSLFFRKVYHLAAVRLRDLCAKLDISDELRKKIWTCFEFSIIQCPELMMDRHLDQLLMCAIYVMAKVTKEDKSFQNIMRCYRTQPQARSQVYRSVLIKGKRKRRNSGSSDSRSHQNSPTELNKDRTSRDSSPVMRSSSTLPVPQPSSAPPTPTRLTGANSDMEEEERGDLIQFYNNIYIKQIKTFAMKYSQANMDAPPLSPYPFVRTGSPRRIQLSQNHPVYISPHKNETMLSPREKIFYYFSNSPSKRLREINSMIRTGETPTKKRGILLEDGSESPAKRICPENHSALLRRLQDVANDRGSH
For the molecule B1, the binding result was “binds”.
